# Laboratory results from PubChem BioAssay (NCATS).
# Inconclusive results, whose numbers are uncertain, are shown with a selection of clear calls. Where the call is inconclusive, the potency comes from a doubtful curve fit. Calls of active or inactive are those of the source. Calls come from the whole dose curve; as a rule, active = well fitted cell-killing curve with a large enough effect; inconclusive = small, poorly fitted or top-dose-only effect, or effect the other way; inactive = no such curve, though single readings can be large or run the other way.
# Assay: Quantitative High-Throughput drug screen in 47 multiple myeloma cell lines against the NCATS MIPE library collection: VP6_DJ cell viability assay (AID 1919867); note: nearly all actives have a fitted effect of over 40% in size
# Conditions: ATP luminescence, 48 h; viability (% of DMSO): at 45.8 µM (top of the series)
# Excerpt: PI: Beverly A. Mock Ph.D.
# Laboratory of Cancer Biology and Genetics,
# Center for Cancer Research, National Cancer Institute,
# National Institute of Health, Bethesda, Maryland
# Drug resistance and disease progression are common in multiple myeloma (MM) patients, underscoring the need for new therapeutic combinations. […] We hypothesized that effective combinations would reduce MYC expression and enhance p16 activity. […] These preclinical data identify potentially useful drug combinations for evaluation in drug-resistant MM and reveal potential mechanisms of combined drug sensitivity.
# Described herein is the primary MIPE qHTS used to cherrypick compounds. Validated compounds were then further tested for potential synergistic activiy.
# [1] Peat TJ, Gaikwad SM, Dubois W, Gyabaah-Kessie N, Zhang S, Gorjifard S, Phyo Z, Andres M, Hughitt VK, Simpson RM, Miller MA, Girvin AT, Taylor A, Williams D, D'Antonio N, Zhang Y, Rajagopalan A, Flietner E, Wilson K, Zhang X, Shinn P, Klumpp-Thomas C, McKnight C, Itkin Z, Chen L, Kazandijian D, Zhang J, Michalowski AM, Simmons JK, Keats J, Thomas CJ, Mock BA. Drug combinations identified by high-throughput screening promote cell cycle transition and upregulate Smad pathways in myeloma. Cancer Lett. 2023 Aug 1;568:216284. doi: 10.1016/j.canlet.2023.216284. Epub 2023 Jun 24. PMID: 37356470; PMCID: PMC10408729.
# SEQUENCE No. (e.g., 1, 2, 3, etc.); […] (e.g., Cells, Incubation, Reagent, etc.); VALUE and DESCRIPTION.
# 1; Cells; 5 uL; white, solid bottom 1536-well Greiner assay plate.
# 2; Compounds; 23 nL; Kalypsis pin tool (Wako USA) equipped with a 1536-well pin head to transfer to the assay plates.
# 3; Incubation; 48 hours; 37C incubation.
# 4; Reagent;5uL; CellTiter Glo (Promega).
# 5; Detector; 425V; Luminescence; Viewlux PerkinElmer.
# NOTES (numbers refer to Sequence numbers above)
# 1. The cell-based screening methods employed in this study were like those previously published. Briefly, the corresponding myeloma cell lines were screened in 1,536-well plates with 500 cells, 5-uL per well for inhibition of cell viability (assessed by measuring ATP levels with CellTiterGlo).
# 2. NCATS MIPE 4.0 library of approved and investigational drugs were added using the Kalypsis pin tool. Wells treated with DMSO only for 100% viability and media only for 0% viability were used as controls.
# 3. The assay plates were covered and incubated for 48 hours in a 37C, 5% CO2 incubator with controlled humidity.
# 4. After 48 hours, CellTilter-GloTM luminescent substrate mix (Promega) reagent was added to the assay plate and plates we incubated for 5 min at room temperature.
# 5. Signal was measured as median relative luminescence units on a ViewLux (PerkinElmer) multiplate reader.
# [1] Heske CM, Davis MI, Baumgart JT, Wilson K, Gormally MV, Chen L, Zhang X, Ceribelli M, Duveau DY, Guha R, Ferrer M, Arnaldez FI, Ji J, Tran HL, Zhang Y, Mendoza A, Helman LJ, Thomas CJ. Matrix Screen Identifies Synergistic Combination of PARP Inhibitors and Nicotinamide Phosphoribosyltransferase (NAMPT) Inhibitors in Ewing Sarcoma. Clin Cancer Res. 2017 Dec 1;23(23):7301-7311. doi: 10.1158/1078-0432.CCR-17-1121. Epub 2017 Sep 12. PMID: 28899971; PMCID: PMC6636827.
# Potency is the fitted concentration of half-maximal effect.
SMILES,Potency,viability (% of DMSO)
CN1CCC(=C2c3ccccc3CCc3sccc32)CC1,"inconclusive: 33.2 µM [cytotoxic, single point]",
Oc1ccc(OCc2ccccc2)cc1,,inactive: 133%
Cc1ccc(C(=O)Nc2ccc(S(=O)(=O)O)c3cc(S(=O)(=O)O)cc(S(=O)(=O)O)c23)cc1NC(=O)c1cccc(NC(=O)Nc2cccc(C(=O)Nc3cc(C(=O)Nc4ccc(S(=O)(=O)O)c5cc(S(=O)(=O)O)cc(S(=O)(=O)O)c45)ccc3C)c2)c1,"inconclusive: 37.2 µM [cytotoxic, single point]",
C[C@H](NC(=O)c1sccc1OCc1ccc(Cl)cc1)c1ccccc1,"inconclusive: 16.6 µM [cytotoxic, partial curve, poor fit]",
CC(C)C(=O)Oc1ccc(CO)cc1[C@H](CCN(C(C)C)C(C)C)c1ccccc1,"inconclusive: 0.0093 µM [rising, full curve]",
COc1ncc(-c2ccc3nccc(-c4ccnnc4)c3c2)cc1NS(=O)(=O)c1ccc(F)cc1F,"inconclusive: 0.0132 µM [cytotoxic, full curve]",
CCN1CCC(n2cc(CNc3cc(Cl)c4ncc(C#N)c(Nc5ccc(F)c(Cl)c5)c4c3)nn2)CC1,"inconclusive: 26.4 µM [cytotoxic, partial curve, poor fit]",
CCCCCNC(=O)N1CCC(CN(Cc2ccc(Cl)cc2)Cc2ccc([N+](=O)[O-])s2)C1 (stereo not given),"inconclusive: 29.6 µM [cytotoxic, single point]",
O[C@@H](COc1cccc2ncccc12)CN1CCN(C2c3ccccc3[C@@H]3[C@H](c4ccccc42)C3(F)F)CC1 (stereo not given in full),"inconclusive: 10.5 µM [cytotoxic, full curve, poor fit]",
CC(C)(C)COc1ccc(-n2cc(C(=O)O)cn2)cc1C#N,"inconclusive: 0.0059 µM [rising, full curve, poor fit]",
CS(=O)(=O)CCNCc1ccc(-c2ccc3ncnc(Nc4ccc(OCc5cccc(F)c5)c(Cl)c4)c3c2)o1,active: 1.66 µM,
CC(O)=C(C#N)C(=O)Nc1ccc(C(F)(F)F)cc1,"inconclusive: 8.33 µM [cytotoxic, full curve, poor fit]",
NC(=O)Cc1cccc(C(=O)c2ccccc2)c1N,"inconclusive: 0.0469 µM [rising, full curve, poor fit]",
Cc1ccccc1C(C(=O)NC1CCCCC1)N(C(=O)Cn1ccnc1C)c1cccc(F)c1 (stereo not given),"inconclusive: 0.0059 µM [rising, full curve, poor fit]",
C[C@@H](O[C@H]1OCCN(Cc2n[nH]c(=O)[nH]2)[C@@H]1c1ccc(F)cc1)c1cc(C(F)(F)F)cc(C(F)(F)F)c1,"inconclusive: 20.9 µM [cytotoxic, partial curve, poor fit]",
O=[N+]([O-])c1ccc(Nc2ccccc2-c2ccccc2)c2nonc12,"inconclusive: 23.5 µM [cytotoxic, single point]",
C[C@H](NC(=O)C(=O)Nc1ccccc1C(C)(C)C)C(=O)N[C@@H](CC(=O)O)C(=O)COc1c(F)c(F)cc(F)c1F,,inactive: 111%
COc1cc2nc(N3CCCN(C)CC3)nc(NC3CCN(Cc4ccccc4)CC3)c2cc1OC,active: 4.69 µM,
C=C(c1ccc(C(=O)O)cc1)c1cc2c(cc1C)C(C)(C)CCC2(C)C,"inconclusive: 0.0026 µM [rising, full curve, poor fit]",
OC[C@H]1O[C@@H](n2cnc3c2NC=NC[C@@H]3O)C[C@H]1O,active: 14.8 µM,

# 3 structures out of the list, arranged by number of heavy atoms, low to high.
SMILES,Potency,viability (% of DMSO)
NC(=O)Cc1cccc(C(=O)c2ccccc2)c1N,"inconclusive: 0.0469 µM [rising, full curve, poor fit]",
CC(C)C(=O)Oc1ccc(CO)cc1[C@H](CCN(C(C)C)C(C)C)c1ccccc1,"inconclusive: 0.0093 µM [rising, full curve]",
C[C@@H](O[C@H]1OCCN(Cc2n[nH]c(=O)[nH]2)[C@@H]1c1ccc(F)cc1)c1cc(C(F)(F)F)cc(C(F)(F)F)c1,"inconclusive: 20.9 µM [cytotoxic, partial curve, poor fit]",

# Further structures follow:

SMILES,Potency,viability (% of DMSO)
OCCC#Cc1nc(-c2ccc(F)cc2)c(-c2ccncc2)n1CCCc1ccccc1,"inconclusive: 33.2 µM [cytotoxic, single point]",
CNC1CCCN(c2c(F)cc3c(=O)c(C(=O)O)cn(C4CC4)c3c2OC)C1 (stereo not given),"inconclusive: 0.0053 µM [rising, full curve, poor fit]",
CC1Cc2ccccc2N1NC(=O)c1ccc(Cl)c(S(N)(=O)=O)c1 (stereo not given),"inconclusive: 0.0066 µM [rising, full curve, poor fit]",
CCCNS(=O)(=O)Nc1ncnc(OCCOc2ncc(Br)cn2)c1-c1ccc(Br)cc1,,inactive: 135%
O=C1NC(=O)C(=Cc2ccc(-c3ccc(F)cc3)o2)S1,active: 14.8 µM,
CC(=O)Oc1ccccc1C(=O)O,"inconclusive: 0.0042 µM [rising, full curve, poor fit]",
CCOC1OC(=O)C[C@H]1NC(=O)[C@@H]1CCCN1C(=O)[C@@H](NC(=O)c1ccc(N)c(Cl)c1)C(C)(C)C (stereo not given in full),"inconclusive: 0.0033 µM [cytotoxic, full curve, poor fit]",
Cc1cn([C@@H]2O[C@H](CO)[C@@H](O)[C@H]2F)c(=O)[nH]c1=O,active: 14.8 µM,
CN1CC(=O)N2C(Cc3c([nH]c4ccccc34)[C@H]2c2ccc3c(c2)OCO3)C1=O (stereo not given in full),,inactive: 104%
CCCS(=O)c1ccc2nc(NC(=O)OC)[nH]c2c1 (stereo not given),"inconclusive: 0.0118 µM [rising, full curve, poor fit]",
CCC1(c2ccccc2)C(=O)NCNC1=O,active: 4.69 µM,
O=C(Nc1nc2ccccc2n1CCN1CCOCC1)c1cccc([N+](=O)[O-])c1,"inconclusive: 0.0093 µM [cytotoxic, full curve, poor fit]",
CN(C)c1ccc2cc(C(=O)N[C@@H](CCCN=C(N)CCl)C(=O)NCc3ccccc3)ccc2c1,active: 4.69 µM,
C[N+](C)(C)CC(=O)O,"inconclusive: 11.8 µM [cytotoxic, single point]",
O=C(Nc1ccc(OC(F)(F)F)cc1)c1sccc1NCc1ccnc2ccccc12,active: 16.6 µM,
O=C(O)CCCCCC(=O)NN=C1CCCC1,,inactive: 118%
O=c1c(-c2ccc(O)cc2)coc2cc(O)ccc12,"inconclusive: 0.296 µM [rising, full curve, poor fit]",
O=c1c(-c2ccc(O)cc2)coc2cc(O[C@@H]3O[C@H](CO)[C@H](O)[C@H](O)[C@H]3O)ccc12,inconclusive: 0.001 µM,
CS(=O)(=O)N(Cc1ccco1)CC(O)Cn1c2ccccc2c2ccccc21 (stereo not given),"inconclusive: 20.9 µM [cytotoxic, partial curve, poor fit]",
CNC[C@H](O)c1ccc(O)c(O)c1,"inconclusive: 2.41 µM [cytotoxic, partial curve, poor fit]",
